Measurements reported in paper PMC3565290.
These are yes or no findings as the source states them, for the method shown. Some results given as binding are weak or reduced against the parent protein; the word gives no strength. Sequences can lack the tags named with a protein.

The chains behind the UniProt entries cited, without tags or fusion partners.
UniProt O81445: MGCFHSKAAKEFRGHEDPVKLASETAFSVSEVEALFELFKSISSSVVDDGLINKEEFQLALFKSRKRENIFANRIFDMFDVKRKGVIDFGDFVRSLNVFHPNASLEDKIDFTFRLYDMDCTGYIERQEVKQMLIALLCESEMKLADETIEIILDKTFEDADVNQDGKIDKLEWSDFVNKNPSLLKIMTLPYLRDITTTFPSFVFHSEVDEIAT

Tests used:
[1] = target: T1, VDAC1 (voltage-dependent anion channel 1, AtVDAC1) in pGBKT7, two-hybrid bait (Arabidopsis) (UniProt Q9SRH5); experiment: two-hybrid; directed test: pGADT7-CBL1 (full coding sequence) co-introduced with pGBKT7-VDAC1 into yeast AH109; growth on SD-Trp-Leu-Ade-His for four days, then β-galactosidase assay; empty vectors as controls
T1 sequence: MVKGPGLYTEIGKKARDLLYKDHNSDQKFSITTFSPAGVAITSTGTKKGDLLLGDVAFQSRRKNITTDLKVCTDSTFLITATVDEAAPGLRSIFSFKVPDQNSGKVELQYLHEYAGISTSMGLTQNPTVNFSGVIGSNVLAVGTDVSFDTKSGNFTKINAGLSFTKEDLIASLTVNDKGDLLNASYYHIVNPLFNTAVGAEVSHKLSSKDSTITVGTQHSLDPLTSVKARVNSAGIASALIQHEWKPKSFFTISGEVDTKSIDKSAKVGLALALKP

GST-VDAC1 (Arabidopsis) = target: T2, GST-VDAC1 (Arabidopsis) (UniProt Q9SRH5); experiment: pull-down; GST-VDAC1 on glutathione sepharose beads incubated overnight at 4 °C with purified His-CBL1; washed five times with ice-cold phosphate-buffered saline; western blot with anti-His antibody; both purified
T2 sequence: T1 sequence

binding [1]	binding (GST-VDAC1 (Arabidopsis))	Substance
binds		CBL1 (calcineurin B-like 1), full coding sequence in pGADT7-Rec2, two-hybrid prey (from UniProt O81445 1-213)
	binds	His-CBL1 (from UniProt O81445 1-213)
